Measured values reported in PubChem BioAssay AID588590 (National Center for Advancing Translational Sciences (NCATS), 2011).
Out of some 390,000 compounds screened, about 4,000 (1%) were called active. Inconclusive results, whose numbers are uncertain, are shown with a selection of clear calls. The call rests on the fitted dose curve; in most records, active means well fitted inhibition curve with a large enough effect; inconclusive means small, poorly fitted or top-dose-only effect, or another doubt; inactive means no such curve, though single readings can be large or run the other way. Potencies of inconclusive entries are doubtful fits and often do not repeat.

The chains behind the UniProt entries cited, without tags or fusion partners. Where a name states a change or a piece, a line headed by the entry shows the natural chain unless it says otherwise.
UniProt Q9UNA4: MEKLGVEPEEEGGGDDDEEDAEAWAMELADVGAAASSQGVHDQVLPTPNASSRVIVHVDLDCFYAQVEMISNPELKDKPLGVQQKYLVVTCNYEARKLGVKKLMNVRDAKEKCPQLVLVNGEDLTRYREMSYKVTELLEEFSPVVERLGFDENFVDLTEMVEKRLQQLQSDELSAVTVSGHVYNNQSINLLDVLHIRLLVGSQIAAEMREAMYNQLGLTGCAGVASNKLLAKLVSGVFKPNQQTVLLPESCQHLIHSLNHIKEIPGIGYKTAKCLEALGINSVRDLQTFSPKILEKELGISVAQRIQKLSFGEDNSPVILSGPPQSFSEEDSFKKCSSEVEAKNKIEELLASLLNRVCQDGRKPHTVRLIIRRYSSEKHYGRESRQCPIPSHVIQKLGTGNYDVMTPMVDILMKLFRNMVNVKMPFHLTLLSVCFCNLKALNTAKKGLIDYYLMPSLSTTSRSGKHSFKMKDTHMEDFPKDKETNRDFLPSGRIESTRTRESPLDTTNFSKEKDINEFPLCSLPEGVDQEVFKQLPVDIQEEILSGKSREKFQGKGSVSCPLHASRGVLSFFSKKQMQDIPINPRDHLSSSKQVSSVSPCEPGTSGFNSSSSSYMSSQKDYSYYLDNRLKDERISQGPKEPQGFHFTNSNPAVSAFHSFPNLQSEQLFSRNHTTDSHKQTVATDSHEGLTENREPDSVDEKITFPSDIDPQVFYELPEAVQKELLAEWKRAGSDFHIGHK

Molecular target: DNA polymerase iota (Homo sapiens) (UniProt Q9UNA4)
Assay: qHTS for Inhibitors of Polymerase Iota
Conditions: Pol iota fluorescent replication assay, 10 min; series mostly up to 115 µM; activity, negative = inhibition: at the top concentration
Procedure, shortened: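 Fluorescent replication assay read twice, at 0 min and 10 min after adding 50 nM (final) substrate. Enzyme (10 nM) and compounds were first incubated 15 min at room temperature; enzyme-free buffer wells were negative controls.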
Potency means the concentration at half of the fitted maximal effect.

Potency, active:
CCN(C(=O)COC(=O)c1cc2c(s1)CCCC2)c1c(N)n(Cc2ccccc2)c(=O)[nH]c1=O 44.7 µM
Cc1ccc(-c2nc3ccccc3[nH]2)cc1NC(=O)COc1cccc(C)c1C 89.1 µM

Potency, inconclusive:
CN(Cc1ccno1)C(=O)CC1C(=O)NCCN1CC(c1ccccc1)c1ccccc1 (centres undefined) 89.1 µM [inhibitor, partial curve, poor fit]
CCOc1ccc(C2=CC(c3cc(Br)ccc3F)n3ncnc3N2)cc1Cl (centres undefined) 79.4 µM [inhibitor, partial curve]
CCCCCCCCOc1ccc(C2OC34CCCCC3C(C#N)(C#N)C2(C#N)C(=N)O4)cc1 (centres undefined) 17.8 µM [inhibitor, partial curve, poor fit]
C#CCOCCOCCOCCNc1nc(N2CCN(C(=O)[C@H](CCCN=C(N)N)n3cc(C(N)[C@H](C)CC)nn3)CC2)nc(N2CCN(C(=O)[C@H](CCCN=C(N)N)n3cc(C(N)[C@@H](C)CC)nn3)CC2)n1 (some centres undefined) 14.1 µM [inhibitor, partial curve, poor fit]
COc1ccc(C(=O)C2CCCN(C(=O)CSC)C2)cc1OC (centres undefined) 3.55 µM [inhibitor, full curve, poor fit]
CCOC(=O)c1sc2nc(CN3CCN(c4cccc(C(F)(F)F)c4)CC3)[nH]c(=O)c2c1C 70.8 µM [inhibitor, single point]
CC1=NN(C(=O)Cc2ccccc2)C(O)(c2cccnc2)C1 (centres undefined) 112 µM [inhibitor, partial curve, poor fit]
CCC1=C(OC(=O)N(CC)CC)N2C(=O)OC(=NCC(=O)OC)[C@]2(Cc2ccccc2)[C@H]2C1=CC[C@H]1C(=O)N(c3ccccc3)C(=O)[C@H]12 39.8 µM [inhibitor, partial curve, poor fit]
CCC(=O)Nc1cccc(C(=O)OC)c1 79.4 µM [inhibitor, partial curve, poor fit]
COc1cccc(-c2cc(C(=O)Nc3nc4ccccc4s3)c3ccccc3n2)c1 17.8 µM [inhibitor, full curve, poor fit]
CSc1nc(N)nc2c1ncn2CC(=O)N1CCN(c2ccccn2)CC1 39.8 µM [inhibitor, single point]
CCn1c(=O)cc(OCC(=O)NCc2ccco2)c2ccccc21 14.1 µM [inhibitor, partial curve, poor fit]
O=C(CCc1ccccc1)c1c(O)cc(O)cc1O 79.4 µM [inhibitor, partial curve, poor fit]
Cc1ccc(-c2nc3ccccc3s2)cc1S(=O)(=O)N1CCCC1 35.5 µM [inhibitor, single point]
CC(=O)OCC(=O)Nc1c(C)cccc1C 28.2 µM [inhibitor, partial curve, poor fit]
CC(=O)c1ccc(N2CCN(S(=O)(=O)c3cc4c(cc3C)NC(=O)CO4)CC2)cc1 100 µM [inhibitor, partial curve, poor fit]
O=C(CSc1nc2c(cnn2-c2cccc(Cl)c2)c(=O)[nH]1)NCCC1=CCCCC1 39.8 µM [inhibitor, full curve, poor fit]
O=C(COC(=O)c1ccc([N+](=O)[O-])o1)NCc1ccccc1 56.2 µM [inhibitor, partial curve, poor fit]
COc1ccc(N=c2sc3ccccc3n2C)cc1 56.2 µM [inhibitor, partial curve, poor fit]
O=C(CSc1ncnc2c1oc1ccccc12)NCc1ccco1 63.1 µM [inhibitor, partial curve, poor fit]
Cc1ccc(C(=O)Nc2nc(-c3ccc(F)cc3)cs2)o1 100 µM [inhibitor, partial curve, poor fit]
C=CCOc1ccc(/C=C2\C(=N)N3N=C(S(=O)(=O)CC)SC3=NC2=O)cc1OC 35.5 µM [inhibitor, single point]
O=C(N[C@H]1C/C=C\C[C@H](CC(=O)N(CCO)Cc2ccccc2)C(=O)N[C@@H](c2ccccc2)COC1=O)OCC1c2ccccc2-c2ccccc21 79.4 µM [inhibitor, single point]
Cc1oc(C)c2c(=O)cc(-c3ccc4c(c3)OCO4)cc(OC(=O)c3ccc(Cl)cc3)c12 89.1 µM [inhibitor, partial curve]
CC(C)CCN1CC(C(=O)NC(C)C)CC1=O (centres undefined) 89.1 µM [inhibitor, single point]
CS(=O)(=O)c1ccc2nc(NC(=O)c3ccc(Cn4cc(Br)cn4)o3)sc2c1 15.8 µM [inhibitor, full curve, poor fit]
CC(C)CNc1oc(-c2ccco2)nc1C#N 22.4 µM [inhibitor, full curve, poor fit]
COc1ccc(C)cc1NC(=O)CCn1nc(C)cc1C 89.1 µM [inhibitor, single point]

For reference, two of the compounds above:
Potency, inconclusive:
CC(C)CNc1oc(-c2ccco2)nc1C#N 22.4 µM [inhibitor, full curve, poor fit]
COc1ccc(C)cc1NC(=O)CCn1nc(C)cc1C 89.1 µM [inhibitor, single point]

Following part.

activity, negative = inhibition, inactive:
CCOc1ccc(S(=O)(=O)N(C(=O)c2ccncc2)c2ccc3oc(C)c(C(=O)OC)c3c2)cc1 -5.29%
Cc1cccc(Cn2c(=O)oc3ccc(C)cc32)c1 122%
Cc1nc2c(C(=O)NCCC(C)C)c[nH]n2c(=O)c1Cl 1.29%
N=C(N)SCc1cccc2c(=O)cc(-c3ccccc3)oc12 -24.7%
COc1ccc(CCNC(=O)CSc2ccc3nnc(CCNC(=O)c4ccc(C)cc4)n3n2)cc1OC 19.3%
COc1ccc(CNC(=O)c2cc(C)nc3c2c(C)nn3-c2cccc(Cl)c2C)cc1 -3.42%
CCc1ccccc1NC(=O)COc1cccc(-n2cnnn2)c1 -10.3%
O=C(CSc1cccc2cccnc12)NCc1ccco1 4.86%
O=C1N=c2ccccc2=C1c1sc(=O)[nH]c1O -13.3%
